These are yes or no findings as the source states them, for the method shown. In cells and extracts the contact can be indirect. Some binding calls cover weakened binding; strength is not graded here.
Molecular target: NF-κB/p65 (human (endogenous in NSCLC cells; line not named for Fig. 4k, A549 in the other panels)) (UniProt Q04206)
Assay: co-IP; cells with or without TGF-β; lysates incubated overnight at 4 °C with anti-p65 antibody or IgG, then protein A/G-agarose; immunoblot

Amino acid sequences for entries named in this document (tags omitted).
UniProt Q04206: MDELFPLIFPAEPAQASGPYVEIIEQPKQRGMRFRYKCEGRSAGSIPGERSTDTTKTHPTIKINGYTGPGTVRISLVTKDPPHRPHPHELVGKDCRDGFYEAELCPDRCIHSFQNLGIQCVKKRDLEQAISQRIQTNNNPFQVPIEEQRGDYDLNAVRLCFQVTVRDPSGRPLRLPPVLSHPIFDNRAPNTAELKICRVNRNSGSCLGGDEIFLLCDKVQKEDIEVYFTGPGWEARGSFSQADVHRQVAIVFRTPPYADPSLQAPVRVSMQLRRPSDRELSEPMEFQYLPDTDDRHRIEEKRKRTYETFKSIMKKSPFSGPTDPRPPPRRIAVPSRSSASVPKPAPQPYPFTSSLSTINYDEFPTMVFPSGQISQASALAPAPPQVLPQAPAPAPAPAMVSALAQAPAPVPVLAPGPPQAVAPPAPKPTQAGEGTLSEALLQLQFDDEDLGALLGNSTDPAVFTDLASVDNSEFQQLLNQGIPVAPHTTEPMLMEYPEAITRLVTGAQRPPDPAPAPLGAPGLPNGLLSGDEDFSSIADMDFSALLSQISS

B1: Myocardin-related transcription factor-A (protein, UniProt Q969V6 1-931)
chain: MPPLKSPAAFHEQRRSLERARTEDYLKRKIRSRPERSELVRMHILEETSAEPSLQAKQLKLKRARLADDLNEKIAQRPGPMELVEKNILPVESSLKEAIIVGQVNYPKVADSSSFDEDSSDALSPEQPASHESQGSVPSPLEARVSEPLLSATSASPTQVVSQLPMGRDSREMLFLAEQPPLPPPPLLPPSLTNGTTIPTAKSTPTLIKQSQPKSASEKSQRSKKAKELKPKVKKLKYHQYIPPDQKQDRGAPPMDSSYAKILQQQQLFLQLQILNQQQQQHHNYQAILPAPPKSAGEALGSSGTPPVRSLSTTNSSSSSGAPGPCGLARQNSTSLTGKPGALPANLDDMKVAELKQELKLRSLPVSGTKTELIERLRAYQDQISPVPGAPKAPAATSILHKAGEVVVAFPAARLSTGPALVAAGLAPAEVVVATVASSGVVKFGSTGSTPPVSPTPSERSLLSTGDENSTPGDTFGEMVTSPLTQLTLQASPLQILVKEEGPRAGSCCLSPGGRAELEGRDKDQMLQEKDKQIEALTRMLRQKQQLVERLKLQLEQEKRAQQPAPAPAPLGTPVKQENSFSSCQLSQQPLGPAHPFNPSLAAPATNHIDPCAVAPGPPSVVVKQEALQPEPEPVPAPQLLLGPQGPSLIKGVAPPTLITDSTGTHLVLTVTNKNADSPGLSSGSPQQPSSQPGSPAPAPSAQMDLEHPLQPLFGTPTSLLKKEPPGYEEAMSQQPKQQENGSSSQQMDDLFDILIQSGEISADFKEPPSLPGKEKPSPKTVCGSPLAAQPSPSAELPQAAPPPPGSPSLPGRLEDFLESSTGLPLLTSGHDGPEPLSLIDDLHSQMLSSTAILDHPPSPMDTSELHFVPEPSSTMGLDLADGHLDSMDWLELSSGGPVLSLAPLSTTAPSLFSTDFLDGHDLQLHWDSCL
binding: binds

Reference: PMC8492728
